{"source": "PubChem BioAssay AID504834", "about": "(National Center for Advancing Translational Sciences (NCATS), 2011)", "note": "In all, about 320,000 compounds went through this assay and about 22,000 (6.9%) were called active. Inconclusive results, whose numbers are uncertain, are shown with a selection of clear calls. The call rests on the fitted dose curve; in most records, active means well fitted inhibition curve with a large enough effect; inconclusive means small, poorly fitted or top-dose-only effect, or another doubt; inactive means no such curve, though single readings can be large or run the other way. Potencies beside an inconclusive call are fits to weak or partial responses and may not hold up. Potency means the concentration at half of the fitted maximal effect."}
{"test": "Primary qHTS for delayed death inhibitors of the malarial parasite plastid, 96 hour incubation", "details": "P. falciparum luciferase reporter growth; series mostly up to 28.7 µM", "summary_of_the_method": "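P. falciparum expressing integrated firefly luciferase grown in erythrocytes (2% hematocrit, 0.05% parasitemia final) with compounds for 96 hours at 37 C, 5% CO2. Growth inhibition read as loss of luminescence after adding luciferase detection reagent.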"}
{"smiles": "O=C(NCCCN1CCOCC1)c1ccc(CS(=O)(=O)Cc2ccccc2Cl)o1", "Potency": "inactive"}
{"smiles": "CCOc1ccc(CNC(=O)c2ccc3c(c2)N(CC)CCS3)cc1", "Potency": "inconclusive: 20.8 µM [inhibitor, single point]"}
{"smiles": "C=CCNC(=O)C1CC2Cn3c(nc4cc(Cl)c(Cl)cc43)C2N1C", "note": "(stereo unspecified)", "Potency": "inactive"}
{"smiles": "CC(=O)Nc1ccc(NC(=O)C/C(C)=N/NC(=O)C(=O)N2CCCC2)cc1", "Potency": "inconclusive: 1.65 µM [inhibitor, partial curve, poor fit]"}
{"smiles": "CC(=O)n1nc(-c2ccco2)nc1SCc1ccccc1", "Potency": "inconclusive: 4.15 µM [inhibitor, partial curve]"}
{"smiles": "Cc1ccc(/C=N/Nc2ccc(F)cc2)s1", "Potency": "inconclusive: 10.4 µM [inhibitor, partial curve, poor fit]"}
{"smiles": "CC(C)c1ccc(Nc2nnns2)cc1", "Potency": "inactive"}
{"smiles": "CC(Sc1nnc(C2CC2)n1C1CC1)C(=O)N(C)C1(C#N)CCCCC1", "note": "(stereo unspecified)", "Potency": "inconclusive: 18.5 µM [inhibitor, partial curve, poor fit]"}
{"smiles": "CC12CCC(c3c(C(=O)N4CCOCC4)nn(-c4ccccc4)c31)C2(C)C", "note": "(stereo unspecified)", "Potency": "active: 1.31 µM"}
{"smiles": "COc1ccccc1CCNC(=O)c1ccccc1SCC(=O)N1CCCC1", "Potency": "inconclusive: 5.22 µM [inhibitor, partial curve, poor fit]"}
{"smiles": "c1ccc(N(c2ccccc2)c2nc(-n3ccnc3)nc(-n3ccnc3)n2)cc1", "Potency": "inconclusive: 4.15 µM [inhibitor, single point]"}
{"smiles": "CCCc1cc(=O)oc2cc(OCC(=O)NCCc3ccc(S(N)(=O)=O)cc3)ccc12", "Potency": "inconclusive: 18.5 µM [inhibitor, single point]"}
{"smiles": "CC(C)n1cnc2c(NCc3ccccc3)cc(Cc3ccc(F)cc3)cc21", "Potency": "active: 6.57 µM"}
{"smiles": "COc1ccc(Nc2nc(N)nc(CN(C)C3CCCCC3)n2)cc1", "Potency": "inconclusive: 11.7 µM [inhibitor, single point]"}
{"smiles": "Clc1ccc(-[n+]2c(-c3cccc(Br)c3)[nH]c3nc4ccccc4nc32)cc1", "Potency": "inconclusive: 16.5 µM [inhibitor, partial curve]"}
{"smiles": "CC(=C/c1ccccc1)/C=N/NC(=O)c1cc(C)oc1C", "Potency": "active: 9.28 µM"}
{"smiles": "CC(C)(C)C(=O)C(Oc1ccc(Cl)cc1)n1ccnc1", "note": "(stereo unspecified)", "Potency": "active: 12 µM"}
{"smiles": "Cc1cccc(-n2ncc3c2CCCC3NC(=O)Cn2cccn2)c1C", "note": "(stereo unspecified)", "Potency": "inactive"}
{"smiles": "C/C(=N\\O)C(=O)NCCCn1ccnc1", "Potency": "inactive"}
{"smiles": "Cc1ccc(Nc2nc(-c3ccc(C)cc3)c(CC(=O)O)s2)cc1", "Potency": "inactive"}
{"smiles": "O=C(NCc1cccc(Cl)c1)N1CCN(S(=O)(=O)c2ccccc2F)CC1", "Potency": "inactive"}
{"smiles": "CC1CCN(c2c(NCC3CCC(C(=O)NC4CCCCCC4)CC3)c(=O)c2=O)CC1", "note": "(stereo unspecified)", "Potency": "inconclusive: 2.62 µM [inhibitor, full curve, poor fit]"}
{"smiles": "COc1ccccc1N(CCC#N)C(=O)CSc1nnc2ccccn12", "Potency": "inactive"}
{"smiles": "O=C(Nc1ccc(C2=NCCN2)cc1)c1ccc(Cl)c(C(=O)Nc2ccc(C3=NCCN3)cc2)c1", "Potency": "active: 0.208 µM"}
{"smiles": "Cc1cccc(/C=N/NC(=O)c2ccc(NC(=O)c3ccccc3C)cc2)n1", "Potency": "inactive"}
{"smiles": "Cc1ccccc1N(CC(=O)NCc1ccco1)C(=O)CCC(=O)Nc1nccs1", "Potency": "inconclusive: 18.5 µM [inhibitor, single point]"}
{"smiles": "COc1ccc(-c2oc3ccccc3c(=O)c2OC(C)=O)cc1", "Potency": "inconclusive: 0.0047 µM [inhibitor, partial curve, poor fit]"}
{"smiles": "CCNc1nc(NCC)n2c(SCC(=O)c3ccccc3F)nnc2n1", "Potency": "inconclusive: 6.57 µM [inhibitor, partial curve]"}
{"smiles": "CCCn1c(C2CCCN2c2nc(C)cs2)nc2cc(Cl)c(Cl)cc21", "note": "(stereo unspecified)", "Potency": "inconclusive: 18.5 µM [inhibitor, single point]"}
{"smiles": "O=S(=O)(c1cnccc1N1CCN(/N=C/c2ccccc2)CC1)N1CCCCC1", "Potency": "inconclusive: 18.5 µM [inhibitor, partial curve, poor fit]"}
{"smiles": "Cc1nc(CN2CCOCC2)cc(=O)[nH]1", "Potency": "inactive"}
{"smiles": "N#C/C(=C\\c1ccncc1)c1nc2c(s1)CCCC2", "Potency": "inactive"}
{"smiles": "O=C(O)COc1ccccc1/C=N/NC(=O)CSc1nc2ccccc2n1Cc1ccc(Cl)cc1", "Potency": "inconclusive: 13.1 µM [inhibitor, single point]"}
{"smiles": "Cc1ccc(C)c(N2CCN(C(=O)c3cc4c(C)nc5ccccc5c4o3)CC2)c1", "Potency": "inactive"}
{"smiles": "O=c1cc(-c2ccncc2)oc2c1ccc1ccccc12", "Potency": "inconclusive: 18.5 µM [inhibitor, single point]"}
{"smiles": "Cc1cccc(N(O)C(=O)Nc2cccc(Cl)c2)c1", "Potency": "inconclusive: 11.7 µM [inhibitor, single point]"}
{"smiles": "C/C(=N\\Nc1ccc(S(=O)(=O)Nc2ccccc2)cc1[N+](=O)[O-])c1ccncc1", "Potency": "inconclusive: 5.22 µM [inhibitor, partial curve]"}
{"smiles": "COc1ccc(/C=C2\\CN(Cc3ccccc3)C/C(=C\\c3ccc(OC)cc3)C2=O)cc1", "Potency": "inconclusive: 1.65 µM [inhibitor, partial curve, poor fit]"}
{"smiles": "COCCN(C(=O)c1ccccc1)c1nc(-c2ccc(OC)cc2)cs1", "Potency": "inconclusive: 14.7 µM [inhibitor, partial curve, poor fit]"}
{"smiles": "FC(F)Sc1ccc(Nc2ncnc3nc[nH]c23)cc1", "Potency": "inactive"}
{"smiles": "Cc1nn(-c2ccccc2)c(N)c1C(c1ccccc1)c1c(C)nn(-c2ccccc2)c1N", "Potency": "active: 13.1 µM"}
{"smiles": "Cc1ccc(NC(=O)C2CCCN2C(=O)OCc2ccccc2)c(O)c1", "note": "(stereo unspecified)", "Potency": "active: 5.22 µM"}
{"smiles": "CCOC(=O)N1CCC(N2CCCC(C(=O)c3cccc(OC)c3)C2)CC1", "note": "(stereo unspecified)", "Potency": "inconclusive: 13.1 µM [inhibitor, single point]"}
{"smiles": "COc1ccc(NC(=O)CC(C)=O)c(OC)c1", "Potency": "inconclusive: 20.8 µM [inhibitor, partial curve, poor fit]"}
{"smiles": "O=C(/C=C/c1cccc(Cl)c1)NCc1cccs1", "Potency": "inconclusive: 4.15 µM [inhibitor, single point]"}
{"smiles": "COc1ccccc1C1CC(=O)NC(SCC(=O)Nc2ccccc2)=C1C#N", "note": "(stereo unspecified)", "Potency": "inconclusive: 13.1 µM [inhibitor, single point]"}
